# Data published in paper PMC5467045.
# The chains behind the UniProt entries cited, without tags or fusion partners.
# UniProt P10417: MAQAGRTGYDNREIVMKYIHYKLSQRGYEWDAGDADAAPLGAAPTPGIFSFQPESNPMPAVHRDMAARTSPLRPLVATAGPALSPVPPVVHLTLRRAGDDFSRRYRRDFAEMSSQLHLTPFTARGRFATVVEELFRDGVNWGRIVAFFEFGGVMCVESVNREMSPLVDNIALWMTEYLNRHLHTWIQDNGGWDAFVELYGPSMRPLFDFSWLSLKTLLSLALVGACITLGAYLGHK
# UniProt O54918: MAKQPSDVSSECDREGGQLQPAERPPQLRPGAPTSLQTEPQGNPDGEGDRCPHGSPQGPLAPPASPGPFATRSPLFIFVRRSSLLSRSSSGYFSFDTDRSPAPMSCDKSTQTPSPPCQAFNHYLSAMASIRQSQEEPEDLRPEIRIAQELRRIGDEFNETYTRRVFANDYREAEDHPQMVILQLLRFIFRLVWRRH
# No constants are given. Whether binding was seen depends on the method and setting. Binding seen in cells or lysates may run through a third protein. Some binding calls cover weakened binding; strength is not graded here.
# Molecular target: Bcl-2 (mouse (endogenous in Eμ-Tcl1 Tg leukemia cells)) (UniProt P10417)
# Experiment: co-IP; lysates of Eμ-Tcl1 Tg leukemias cultured for 24 or 36 h with GS-9820 (0.6 μM) or vehicle control; immunoprecipitation with an anti-Bcl-2 mAb or an isotype control; Bim co-immunoprecipitation assessed by western blot
substance,measurement,value
Bim (from UniProt O54918 1-196),binding,binds
